Test results: publication PMC7862700
This is a selection; strong and weak results do not stand in their true shares. For part of these data: At the low end of the ranking the order means little. The list shows a part of the results. For part of these data: The exact form of the protein is not confirmed.

Amino acid sequences for entries named in this document (tags omitted). A change or cut given only in a name is not applied to a line headed by its entry.
UniProt P32519: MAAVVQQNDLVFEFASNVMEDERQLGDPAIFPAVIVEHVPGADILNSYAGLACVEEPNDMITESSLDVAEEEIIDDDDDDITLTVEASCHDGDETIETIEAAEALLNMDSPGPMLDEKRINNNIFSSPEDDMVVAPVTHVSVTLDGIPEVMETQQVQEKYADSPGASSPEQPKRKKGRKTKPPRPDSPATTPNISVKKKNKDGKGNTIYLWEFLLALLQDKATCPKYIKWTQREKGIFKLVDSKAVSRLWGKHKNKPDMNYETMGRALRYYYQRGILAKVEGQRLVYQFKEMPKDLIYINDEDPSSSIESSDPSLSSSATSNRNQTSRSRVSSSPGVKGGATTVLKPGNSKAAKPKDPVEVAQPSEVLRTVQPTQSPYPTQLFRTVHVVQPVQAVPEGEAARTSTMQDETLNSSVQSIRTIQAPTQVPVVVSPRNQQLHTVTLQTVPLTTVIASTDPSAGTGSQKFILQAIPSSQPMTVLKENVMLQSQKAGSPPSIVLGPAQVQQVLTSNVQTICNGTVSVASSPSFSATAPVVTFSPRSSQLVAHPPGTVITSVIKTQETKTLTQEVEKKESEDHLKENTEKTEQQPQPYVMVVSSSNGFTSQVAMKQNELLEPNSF
UniProt P50549: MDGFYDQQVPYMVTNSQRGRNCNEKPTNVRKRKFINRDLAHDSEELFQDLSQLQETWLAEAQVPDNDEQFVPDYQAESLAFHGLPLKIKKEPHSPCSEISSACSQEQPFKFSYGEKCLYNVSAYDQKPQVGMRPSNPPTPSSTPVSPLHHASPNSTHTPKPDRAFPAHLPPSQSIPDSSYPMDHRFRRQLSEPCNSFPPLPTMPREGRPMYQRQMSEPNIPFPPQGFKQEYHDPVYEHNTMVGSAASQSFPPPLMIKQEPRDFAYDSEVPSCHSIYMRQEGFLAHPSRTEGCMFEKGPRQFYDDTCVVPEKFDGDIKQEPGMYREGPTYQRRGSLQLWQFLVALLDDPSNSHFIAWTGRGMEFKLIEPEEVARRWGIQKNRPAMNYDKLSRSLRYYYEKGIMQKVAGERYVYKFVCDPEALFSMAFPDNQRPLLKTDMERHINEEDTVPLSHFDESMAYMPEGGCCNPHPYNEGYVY

Key:
Test in all cases: DAPPL (digital affinity profiling via proximity ligation, sequencing)
Settings in all cases: 10 mM Tris-HCl pH 7.5, 50 mM NaCl, 1 mM DTT, 4% glycerol, room temperature, 30 min; GST-TFs on glutathione beads, 16-mer random dsDNA library, 0.1% …; high values mean tight binding; double strand, one strand shown; scale: fold enrichment (6-mer frequency, TF over GST control)
ERG = target: T1, ERG (UniProt P11308)
T1 sequence: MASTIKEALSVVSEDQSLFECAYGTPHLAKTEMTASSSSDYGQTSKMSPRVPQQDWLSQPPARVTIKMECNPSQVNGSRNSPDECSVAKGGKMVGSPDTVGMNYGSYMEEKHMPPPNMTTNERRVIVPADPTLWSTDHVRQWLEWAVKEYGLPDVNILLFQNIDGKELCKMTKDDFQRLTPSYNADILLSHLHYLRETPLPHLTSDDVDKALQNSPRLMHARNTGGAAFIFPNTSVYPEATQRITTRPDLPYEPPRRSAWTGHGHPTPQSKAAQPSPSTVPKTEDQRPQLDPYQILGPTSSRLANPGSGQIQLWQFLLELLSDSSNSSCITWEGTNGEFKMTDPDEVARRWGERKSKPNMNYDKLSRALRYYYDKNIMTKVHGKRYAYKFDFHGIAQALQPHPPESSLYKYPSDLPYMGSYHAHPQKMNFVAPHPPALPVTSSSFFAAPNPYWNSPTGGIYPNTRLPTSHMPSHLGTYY

ELF1 = ELF1 (UniProt P32519)
ELK4 = target: T2, ELK4 (UniProt P28324-2)
T2 sequence: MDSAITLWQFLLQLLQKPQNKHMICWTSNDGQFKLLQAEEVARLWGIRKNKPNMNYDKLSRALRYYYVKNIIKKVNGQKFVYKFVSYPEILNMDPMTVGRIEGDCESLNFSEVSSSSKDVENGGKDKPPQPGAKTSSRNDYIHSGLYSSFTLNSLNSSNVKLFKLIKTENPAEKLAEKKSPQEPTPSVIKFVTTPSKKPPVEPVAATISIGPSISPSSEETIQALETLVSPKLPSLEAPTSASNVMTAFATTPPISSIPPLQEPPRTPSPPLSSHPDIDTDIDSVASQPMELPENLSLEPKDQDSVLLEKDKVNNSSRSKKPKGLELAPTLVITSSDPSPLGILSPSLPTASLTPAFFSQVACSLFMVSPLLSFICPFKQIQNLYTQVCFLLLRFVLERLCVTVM

ETV4 = target: T3, ETV4 (UniProt P43268)
T3 sequence: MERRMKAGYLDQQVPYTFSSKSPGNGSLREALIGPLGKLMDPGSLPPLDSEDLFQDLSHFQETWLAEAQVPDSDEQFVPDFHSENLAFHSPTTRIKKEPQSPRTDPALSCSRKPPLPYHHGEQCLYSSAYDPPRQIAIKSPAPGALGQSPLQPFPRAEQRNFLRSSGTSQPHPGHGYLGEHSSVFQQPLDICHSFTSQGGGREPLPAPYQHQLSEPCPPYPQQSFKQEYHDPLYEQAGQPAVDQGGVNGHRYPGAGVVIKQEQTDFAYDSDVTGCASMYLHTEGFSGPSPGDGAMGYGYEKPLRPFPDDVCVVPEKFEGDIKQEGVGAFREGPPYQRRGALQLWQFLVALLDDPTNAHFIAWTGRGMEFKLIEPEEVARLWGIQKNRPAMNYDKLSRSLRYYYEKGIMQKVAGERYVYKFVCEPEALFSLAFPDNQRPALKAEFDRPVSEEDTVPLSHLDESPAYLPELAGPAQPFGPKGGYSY

ETV1 = ETV1 (UniProt P50549)
ERF = target: T4, ERF (UniProt P50548)
T4 sequence: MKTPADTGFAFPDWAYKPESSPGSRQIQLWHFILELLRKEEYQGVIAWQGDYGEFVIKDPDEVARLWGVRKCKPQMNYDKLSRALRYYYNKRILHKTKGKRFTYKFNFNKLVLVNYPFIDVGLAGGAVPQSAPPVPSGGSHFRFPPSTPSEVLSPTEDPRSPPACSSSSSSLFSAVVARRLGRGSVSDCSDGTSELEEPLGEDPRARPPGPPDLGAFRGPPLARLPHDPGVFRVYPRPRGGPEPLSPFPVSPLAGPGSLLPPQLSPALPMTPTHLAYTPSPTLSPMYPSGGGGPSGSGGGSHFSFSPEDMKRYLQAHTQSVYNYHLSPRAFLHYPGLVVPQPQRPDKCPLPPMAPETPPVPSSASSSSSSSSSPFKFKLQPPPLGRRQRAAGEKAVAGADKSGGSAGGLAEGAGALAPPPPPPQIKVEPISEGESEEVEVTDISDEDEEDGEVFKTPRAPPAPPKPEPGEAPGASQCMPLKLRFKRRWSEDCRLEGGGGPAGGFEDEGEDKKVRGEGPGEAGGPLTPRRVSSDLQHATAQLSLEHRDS

Sequence	binding signal (ERG)	binding signal (ELF1)	binding signal (ELK4)	binding signal (ETV4)	binding signal (ETV1)	binding signal (ERF)
GACGCC	0.801	0.946	0.679	0.931	0.713	0.895
CGGAGG	0.305	0.275	0.261	0.287	0.296	0.268
TCAGGA	0.887	0.799	0.8	0.802	0.849	0.724
CAGTCG	0.191	0.18	0.177	0.164	0.167	0.188
GCGGCC	0.811	0.874	0.928	0.767	0.865	0.81
CGCGGG	0.77	0.73	0.693	0.737	0.764	0.719
AGATAC	0.955	0.96	0.972	0.901	0.985	0.891
CTCGGA	0.841	0.846	0.807	0.797	0.9	0.848
GGCTGT	0.806	0.839	0.818	0.724	0.747	0.876
CCCGAG	0.888	0.881	0.865	0.811	0.834	0.984
GGCGGT	0.414	0.408	0.378	0.39	0.391	0.427
TTGTGA	0.784	0.824	0.87	0.794	0.712	0.744
GGACAC	0.782	0.787	0.749	0.777	0.807	0.737
ACTAGT	0.919	0.859	0.83	0.84	0.848	0.925
CGTGGT	0.597	0.577	0.722	0.617	0.577	0.649
AAGGCG	0.705	0.675	0.685	0.656	0.661	0.73
GCGCGA	0.725	0.729	0.846	0.774	0.756	0.724
TCGGTG	0.496	0.533	0.62	0.553	0.567	0.591
CAAGAC	0.875	0.849	0.839	0.837	0.855	0.924
ACGCAG	0.777	0.795	0.81	0.83	0.765	0.819

Sequence	binding signal (ERG)	binding signal (ELF1)	binding signal (ELK4)	binding signal (ETV4)	binding signal (ETV1)	binding signal (ERF)
TGAAGT	0.762	0.736	0.766	0.735	0.764	0.817
CGGTCG	0.414	0.36	0.384	0.389	0.409	0.416
GGGCGC	0.663	0.653	0.646	0.641	0.693	0.654
GGTGCG	0.585	0.569	0.642	0.525	0.526	0.563
AGTAGG	0.675	0.597	0.585	0.626	0.688	0.631
GTAGGC	0.682	0.712	0.641	0.676	0.722	0.696
GGGCGT	0.504	0.509	0.499	0.521	0.528	0.447
GTAGGG	0.665	0.681	0.734	0.671	0.645	0.638
CAGGAC	0.783	0.765	0.776	0.772	0.739	0.712
TAGCCA	0.799	0.885	0.833	0.848	0.892	0.921
CCAGTA	0.674	0.694	0.68	0.693	0.666	0.638
AACCAG	0.835	0.882	0.897	0.811	0.831	0.827
GTCCGA	0.902	0.896	0.8	0.87	0.85	0.879
CGCATT	0.72	0.812	0.779	0.78	0.799	0.815
GTCGAG	0.442	0.416	0.421	0.473	0.473	0.485
GCATTG	0.757	0.806	0.828	0.798	0.847	0.909
GCGCAT	0.891	0.83	0.959	0.908	0.837	0.821
GTCGAT	0.7	0.674	0.726	0.675	0.714	0.663
GGGGAC	0.476	0.466	0.436	0.483	0.461	0.475
GATTGG	0.871	0.857	0.876	0.881	0.915	0.857

Reprinted at random: 5 entries already listed, in no set order.
Sequence	binding signal (ERG)	binding signal (ELF1)	binding signal (ELK4)	binding signal (ETV4)	binding signal (ETV1)	binding signal (ERF)
TGAAGT	0.762	0.736	0.766	0.735	0.764	0.817
CGGTCG	0.414	0.36	0.384	0.389	0.409	0.416
ACTAGT	0.919	0.859	0.83	0.84	0.848	0.925
GTAGGG	0.665	0.681	0.734	0.671	0.645	0.638
CGCATT	0.72	0.812	0.779	0.78	0.799	0.815

The list continues:

Sequence	binding signal (ERG)	binding signal (ELF1)	binding signal (ELK4)	binding signal (ETV4)	binding signal (ETV1)	binding signal (ERF)
AGACGT	0.505	0.467	0.494	0.453	0.427	0.444
GGGGTC	0.633	0.661	0.587	0.625	0.701	0.663
TGAGCA	0.919	0.827	0.824	0.833	0.805	0.858
GCGAGA	0.525	0.468	0.437	0.538	0.517	0.558
CGGTTG	0.798	0.805	0.963	0.832	0.765	0.741
GGTGCA	0.799	0.842	0.926	0.861	0.949	0.91
GGGGGC	0.652	0.643	0.768	0.56	0.662	0.699
GGATTG	0.817	0.778	0.802	0.781	0.867	0.83
AGGTAC	0.918	0.95	0.966	0.935	0.88	0.904
CATGAG	0.657	0.683	0.744	0.695	0.676	0.702
AAGTCG	0.527	0.497	0.451	0.49	0.526	0.486
GTCCAG	0.676	0.604	0.627	0.63	0.621	0.576
GGAGTA	0.333	0.342	0.373	0.355	0.354	0.385
GATAGG	0.876	0.868	0.901	0.785	0.852	0.807
CGCCAG	0.654	0.661	0.709	0.665	0.646	0.649
CAGCAG	0.782	0.869	0.878	0.912	0.821	0.806
GAGTCG	0.235	0.234	0.234	0.209	0.233	0.248
CAGGTT	0.662	0.674	0.685	0.617	0.64	0.66
CTGTCG	0.55	0.555	0.567	0.584	0.57	0.604
GTCCGT	0.504	0.502	0.549	0.523	0.519	0.454
